This is an account of results in paper PMC5320500.

Chains of the proteins cited; added tags and fusions are not shown.
UniProt Q5D869: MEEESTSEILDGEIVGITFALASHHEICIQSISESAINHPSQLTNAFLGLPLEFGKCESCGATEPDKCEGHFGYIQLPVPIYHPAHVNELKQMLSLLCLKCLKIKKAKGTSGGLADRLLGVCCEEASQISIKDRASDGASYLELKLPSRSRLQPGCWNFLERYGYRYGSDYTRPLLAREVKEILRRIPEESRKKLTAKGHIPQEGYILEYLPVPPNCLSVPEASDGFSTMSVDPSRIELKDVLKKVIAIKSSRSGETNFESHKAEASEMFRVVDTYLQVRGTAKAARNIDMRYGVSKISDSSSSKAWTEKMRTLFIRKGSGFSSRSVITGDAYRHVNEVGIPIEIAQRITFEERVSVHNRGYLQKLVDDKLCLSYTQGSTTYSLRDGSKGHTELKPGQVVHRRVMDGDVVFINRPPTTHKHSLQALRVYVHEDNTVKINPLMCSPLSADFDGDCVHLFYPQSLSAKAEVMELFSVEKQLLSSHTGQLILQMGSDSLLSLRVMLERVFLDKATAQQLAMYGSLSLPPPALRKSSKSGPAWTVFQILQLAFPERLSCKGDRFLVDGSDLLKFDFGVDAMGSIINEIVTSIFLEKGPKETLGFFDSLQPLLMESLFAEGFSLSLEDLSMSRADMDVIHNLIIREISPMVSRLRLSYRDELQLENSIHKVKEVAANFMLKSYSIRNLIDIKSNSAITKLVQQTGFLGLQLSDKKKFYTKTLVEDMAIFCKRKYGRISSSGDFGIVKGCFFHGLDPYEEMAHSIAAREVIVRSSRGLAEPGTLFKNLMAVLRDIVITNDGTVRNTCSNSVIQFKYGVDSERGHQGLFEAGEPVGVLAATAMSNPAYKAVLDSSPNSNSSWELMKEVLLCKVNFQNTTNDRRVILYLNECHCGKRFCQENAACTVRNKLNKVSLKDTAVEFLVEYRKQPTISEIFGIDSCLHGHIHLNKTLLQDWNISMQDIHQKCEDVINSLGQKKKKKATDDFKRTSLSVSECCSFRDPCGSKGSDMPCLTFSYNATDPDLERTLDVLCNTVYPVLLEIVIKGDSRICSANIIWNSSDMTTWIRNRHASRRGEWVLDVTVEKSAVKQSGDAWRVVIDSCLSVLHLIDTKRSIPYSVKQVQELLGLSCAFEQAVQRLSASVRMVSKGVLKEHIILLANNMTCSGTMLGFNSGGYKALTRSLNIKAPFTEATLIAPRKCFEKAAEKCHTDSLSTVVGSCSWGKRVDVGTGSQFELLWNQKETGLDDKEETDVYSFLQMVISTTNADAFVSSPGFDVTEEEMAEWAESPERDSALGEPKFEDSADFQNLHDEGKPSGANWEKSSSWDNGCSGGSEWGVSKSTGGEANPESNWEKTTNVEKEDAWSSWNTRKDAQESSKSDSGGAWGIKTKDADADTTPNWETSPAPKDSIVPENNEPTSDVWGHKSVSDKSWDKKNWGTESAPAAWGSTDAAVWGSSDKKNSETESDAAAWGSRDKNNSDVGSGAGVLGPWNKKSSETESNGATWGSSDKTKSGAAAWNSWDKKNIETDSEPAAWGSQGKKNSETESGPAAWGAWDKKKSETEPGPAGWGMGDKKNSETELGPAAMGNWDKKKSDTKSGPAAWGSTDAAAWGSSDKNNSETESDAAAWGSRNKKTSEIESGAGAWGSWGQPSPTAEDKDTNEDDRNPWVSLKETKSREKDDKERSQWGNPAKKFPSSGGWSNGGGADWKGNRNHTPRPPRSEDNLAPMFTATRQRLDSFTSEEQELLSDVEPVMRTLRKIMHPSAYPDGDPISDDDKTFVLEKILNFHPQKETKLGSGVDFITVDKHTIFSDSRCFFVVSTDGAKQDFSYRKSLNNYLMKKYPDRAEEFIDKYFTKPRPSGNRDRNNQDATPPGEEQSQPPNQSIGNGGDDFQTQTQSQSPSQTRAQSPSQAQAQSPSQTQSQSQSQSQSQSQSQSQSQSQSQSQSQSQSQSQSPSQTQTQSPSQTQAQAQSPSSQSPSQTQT

The labels stand for the following.
B1: glycine rich protein 7 (protein, UniProt Q03250 1-176)
chain: MASGDVEYRCFVGGLAWATDDRALETAFAQYGDVIDSKIINDRETGRSRGFGFVTFKDEKAMKDAIEGMNGQDLDGRSITVNEAQSRGSGGGGGHRGGGGGGYRSGGGGGYSGGGGSYGGGGGRREGGGGYSGGGGGYSSRGGGGGSYGGGRREGGGGYGGGEGGGYGGSGGGGGW
B2: actin-related protein 7 (protein, UniProt Q8L4Y5 1-363)
chain: MEALVVDAGSKFLKAGAAIPDQSPAMIIPSQMKRMVDDGSSSADNPTTVFEDVTLDPIERGLIRDWDAMEDLLRYVVYTGLGWEEGNEGNILFTDPLCTPKAIREQLVQLMFETFNVSGFYASEQAVLSLYAVGRISGCTVDIGHGKIDIAPVLEGAVQHIASKRFELGGTELTKLFAQELGKTNPSMNLSMSDVEKLKEQYANCAEDEIAYKKTQNCEIEQHTLPDGQVISIGRERYSVGEALFQPSILGLEEHGIVEQLVRIISTVSSENHRQLLENTVLCGGTTSMTGFESRFQKEANLCSSAIRPTLVKPPEYMPENLGMYSAWVGGAILAKVVFPQNQHVTKADYDETGPSVVHRKCF
B3: PYK10-binding protein 1 (protein, UniProt O04314 1-298)
chain: MAQKVEAQGGKGANLWDDGSTHDAVTKIQLAAGIDGIQYVQFDYVKNGQPEQAPLRGTKGRVLPADPFVINHPDEHLVSVEGWYSPEGIIQGIKFISNKKTSDVIGSDEGTHFTLQVKDKKIIGFHGSAGGNLNSLGAYFAPLTTTTPLTPAKQLTAFGSDDGTVWDDGAYVGVKKVYVGQAQDGISAVKFVYDKSPEEVTGEEHGKSTLLGFEEFVLDYPSEYITAVDGTYDKIFGSDGSVITMLRFKTNKQTSPPFGLEAGTVFELKEEGHKIVGFHGRADVLLHKIGVHVRPLSN
B4: rubisco activase (protein, UniProt P10896 59-474)
chain: AVKEDKQTDGDRWRGLAYDTSDDQQDITRGKGMVDSVFQAPMGTGTHHAVLSSYEYVSQGLRQYNLDNMMDGFYIAPAFMDKLVVHITKNFLTLPNIKVPLILGIWGGKGQGKSFQCELVMAKMGINPIMMSAGELESGNAGEPAKLIRQRYREAADLIKKGKMCCLFINDLDAGAGRMGGTTQYTVNNQMVNATLMNIADNPTNVQLPGMYNKEENARVPIICTGNDFSTLYAPLIRDGRMEKFYWAPTREDRIGVCKGIFRTDKIKDEDIVTLVDQFPGQSIDFFGALRARVYDDEVRKFVESLGVEKIGKRLVNSREGPPVFEQPEMTYEKLMEYGNMLVMEQENVKRVQLAETYLSQAALGDANADAIGRGTFYGKGAQQVNLPVPEGCTDPVAENFDPTARSDDGTCVYNF
B5: RNA-directed DNA methylation 4 (protein, UniProt Q8GYP3 1-346)
chain: MDGVGESSTQNEVEEKPVIVRVKRKVGQSLLDAFWLEINERPLKRPTLDFSKLSISDSGERGPSVAEDVKPKKVLVRHLETVTDSETTADIIHSFFESDHNEKSCSKGKFEERKIAFKKDNRKEQRLTKSVQKQQIASENARFEQIWRSRKGNKEGIHEKCHFFDVIRVDTEERRDNAQEFTSLEDQKMLASFLPLLRECIPTAAEEIEADIQSSHTEEYVYDYYAVNEEMDISEDSSKNQFPLVIVEDEEEFCDGSDESDYDSEDSNAEDHPKTDYPEEEEEEEEEDDDDDDDDESEEEKSEASDESDDEETSKRHVRSVLGDDEFDDYAEDVYGYSESDEEFES
B6: DNAJ homologue 3 (protein, UniProt Q94AW8 1-420)
chain: MFGRGPSKKSDNTKFYEILGVPKSASPEDLKKAYKKAAIKNHPDKGGDPEKFKELAQAYEVLSDPEKREIYDQYGEDALKEGMGGGGGGHDPFDIFSSFFGGGPFGGNTSRQRRQRRGEDVVHPLKVSLEDVYLGTMKKLSLSRNALCSKCNGKGSKSGASLKCGGCQGSGMKVSIRQLGPGMIQQMQHACNECKGTGETINDRDRCPQCKGDKVIPEKKVLEVNVEKGMQHSQKITFEGQADEAPDTVTGDIVFVLQQKEHPKFKRKGEDLFVEHTLSLTEALCGFQFVLTHLDGRSLLIKSNPGEVVKPDSYKAISDEGMPIYQRPFMKGKLYIHFTVEFPDSLSPDQTKALEAVLPKPSTAQLSDMEIDECEETTLHDVNIEDEMRRKAQAQREAYDDDDEDDDHPGGAQRVQCAQQ
B7: unknown protein AT1G13930 (protein, UniProt Q9XI93 1-155)
chain: MNFISDQVKKLSSSTPEEPDHNKPVEGTETATRPATNAELMASAKVVAEAAQAAARNESDKLDKGKVAGASADILDAAEKYGKFDEKSSTGQYLDKAEKYLNDYESSHSTGAGGPPPPTSQAEPASQPEPAAKKDDEESGGGLGGYAKMAQGFLK
B8: NRPE7 (protein, UniProt A6QRA1 1-178)
chain: MFLKVQLPWNVMIPAENMDAKGLMLKRAILVELLEAFASKKATKELGYYVAVTTLDKIGEGKIREHTGEVLFPVMFSGMTFKIFKGEIIHGVVHKVLKHGVFMRCGPIENVYLSYTKMPDYKYIPGENPIFMNEKTSRIQVETTVRVVVIGIKWMEVEREFQALASLEGDYLGPLSEE
B9: NRPE11 (protein, UniProt Q38859 1-116)
chain: MNAPERYERFVVPEGTKKVSYDRDTKIINAASFTVEREDHTIGNIVRMQLHRDENVLFAGYQLPHPLKYKIIVRIHTTSQSSPMQAYNQAINDLDKELDYLKNQFEAEVAKFSNQF
B10: NRPE8b (protein, UniProt Q9M1A8 1-146)
chain: MASNIIMFEDIFVVDKLDPDGKKFDKVTRVEARSHNLEMFMHLDVNTEVYPLAVGDKFTLAMAPTLNLDGTPDTGYFTPGAKKTLADKYEYIMHGKLYKISERDGKTPKAELYVSFGGLLMLLQGDPAHISHFELDQRLFLLMRKL
B11: NRPE4 (protein, UniProt Q6DBA5 1-205)
chain: MSEKGGKGLKSSLKSKDGGKDGSSTKLKKGRKIHFDQRTPPANYKILNVSSDQQPFQSSAAKCGKSDKPTKSSKNSLHSFELKDLPENAECMMDCEAFQILDGIKGQLVGLSEDPSIKIPVSYDRALAYVESCVHYTNPQSVRKVLEPLKTYGISDGEMCVIANASSESVDEVLAFIPSLKTKKEVINQPLQDALEELSKLKKSE
B12: NRPE9a (protein, UniProt Q6NLH0 1-114)
chain: MSTMKFCRECNNILYPKEDKEQKILLYACRNCDHQEVADNSCVYRNEVHHSVSERTQILTDVASDPTLPRTKAVRCSKCQHREAVFFQATARGEEGMTLFFVCCNPNCGHRWRE
B13: NRPE9b (protein, UniProt Q8L5V0 1-114)
chain: MSTMKFCRECNNILYPKEDKEQSILLYACRNCDHQEAADNNCVYRNEVHHSVSEQTQILSDVASDPTLPRTKAVRCAKCQHGEAVFFQATARGEEGMTLFFVCCNPNCSHRWRE
B14: NRPE3b (protein, UniProt Q39212 1-319)
chain: MDGVTYQRFPTVKIRELKDDYAKFELRETDVSMANALRRVMISEVPTMAIHLVKIEVNSSVLNDEFIAQRLSLIPLTSERAMSMRFCQDCEDCNGDEHCEFCSVEFPLSAKCVTDQTLDVTSRDLYSADPTVTPVDFTSNSSTSDSSEHKGIIIAKLRRGQELKLKALARKGIGKDHAKWSPAATVTYMYEPDIIINEEMMNTLTDEEKIDLIESSPTKVFGIDPVTGQVVVVDPEAYTYDEEVIKKAEAMGKPGLIEIHPKHDSFVFTVESTGALKASQLVLNAIDILKQKLDAIRLSDNTVEADDQFGELGAHMREG
B15: SnRK2.1 (enzyme, UniProt P43292 1-353)
chain: MDKYDVVKDLGAGNFGVARLLRHKDTKELVAMKYIERGRKIDENVAREIINHRSLKHPNIIRFKEVILTPTHLAIVMEYASGGELFDRICTAGRFSEAEARYFFQQLICGVDYCHSLQICHRDLKLENTLLDGSPAPLLKICDFGYSKSSILHSRPKSTVGTPAYIAPEVLSRREYDGKHADVWSCGVTLYVMLVGAYPFEDPNDPKNFRKTIQRIMAVQYKIPDYVHISQECKHLLSRIFVTNSAKRITLKEIKNHPWYLKNLPKELLESAQAAYYKRDTSFSLQSVEDIMKIVGEARNPAPSTSAVKSSGSGADEEEEEDVEAEVEEEEDDEDEYEKHVKEAQSCQESDKA

These are yes or no findings as the source states them, for the method shown. In cells and extracts the contact can be indirect. These calls come from enrichment with a bait or labelling near it, and not all partners need be listed. For part of these data: A no says only that the protein was not detected with the bait.

The target in the first assay is NRPE1-FLAG (Arabidopsis thaliana) (UniProt Q5D869). As to the kind of experiment: affinity purification with mass spectrometry; dimethylated anti-FLAG antibody purification with forward and reciprocal 14N/15N metabolic labelling of Col-0 wild-type and NRPE1-FLAG transgenic seedlings; H/L ratios by LC MS/MS to tell specific from non-specific proteins.
Consider B1, for which the binding entry was “binds”.

Consider B2, for which the binding entry was “binds”.

As to B3, the binding entry is “binds”.

As for B4, the binding entry was “no binding”.

B5: the binding result is reported as “binds”.

Regarding B6, the binding entry was “binds”.

For the molecule B7, the binding result is reported as “binds”.

The target of another assay is NRPE1-FLAG (largest subunit of nuclear RNA polymerase V) (Arabidopsis thaliana) (UniProt Q5D869). Briefly: affinity purification with mass spectrometry; anti-FLAG M2 beads (non-methylated, Control 1 and 2, or dimethylated) in lysate of 14-day NRPE1-FLAG transgenic Arabidopsis seedlings, 4 °C, 3 h; on-bead digestion by trypsin, or by Lys-C and then trypsin; LC MS/MS; three biological repeats.
As to B8, the binding entry is reported as “binds”.

On to B9, for which the binding result is reported as “binds”.

For the molecule B10, the binding entry is “binds”.

Regarding B11, the binding result was “binds”.

In the case of B12, the binding entry is listed as “binds”.

On to B13, for which the binding result was “binds”.

For B14, the binding result is “binds”.

The target of another assay is NRPE1-FLAG (Arabidopsis thaliana) (UniProt Q5D869). Briefly: affinity purification with mass spectrometry; anti-FLAG M2 beads (lysines dimethylated, or non-methylated as controls 1 and 2) incubated 3 h at 4 °C with lysate of 14-day NRPE1-FLAG transgenic Arabidopsis seedlings (50 mM Tris-HCl pH 7.5, 150 mM NaCl, 5 mM MgCl2, 10% glycerol, 0.1% NP-40); on-bead digestion with Lys-C then trypsin; Orbitrap LC MS/MS.
Consider B15, for which the binding entry is “binds”.
